From PMC5833739
No constants are given. Whether binding was seen depends on the method and setting. Binding seen in cells or lysates may run through a third protein. Binding calls can cover weak binding; strength is not graded here. For some of these results: Tags and fused reporters may be left off the sequences shown.

T1: RFXANK-myc-FLAG (human) (UniProt O14593)
T1 sequence: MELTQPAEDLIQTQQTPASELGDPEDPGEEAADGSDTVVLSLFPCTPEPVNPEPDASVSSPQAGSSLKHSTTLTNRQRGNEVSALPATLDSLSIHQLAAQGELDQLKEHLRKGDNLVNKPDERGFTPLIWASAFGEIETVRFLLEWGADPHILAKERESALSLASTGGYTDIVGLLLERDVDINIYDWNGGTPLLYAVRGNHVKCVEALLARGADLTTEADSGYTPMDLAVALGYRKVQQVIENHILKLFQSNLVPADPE

T2: endogenous RFXANK (HEK293T) (human (endogenous in HEK293T)) (UniProt O14593)
T2 sequence: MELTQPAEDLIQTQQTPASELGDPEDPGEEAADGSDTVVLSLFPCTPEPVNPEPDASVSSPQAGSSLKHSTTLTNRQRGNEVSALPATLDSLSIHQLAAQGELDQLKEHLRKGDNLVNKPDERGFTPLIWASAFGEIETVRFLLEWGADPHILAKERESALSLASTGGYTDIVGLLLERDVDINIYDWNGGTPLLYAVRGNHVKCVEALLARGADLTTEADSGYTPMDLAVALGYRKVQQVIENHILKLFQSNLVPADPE


Key:
RFXANK-myc-FLAG (human) = target: T1, RFXANK-myc-FLAG (human); test: co-IP; HEK293T lysates after transfection; capture on anti-RFXANK-coated Dynabeads Protein G overnight at 4 °C; lysis buffer 30 mM Tris-HCl pH 7.5, 120 mM NaCl, 1% glycerol, 0.5% NP-40; Western blot
[1] = target: T2, endogenous RFXANK (HEK293T) (human (endogenous in HEK293T)); test: as above
[2] = target: Caspase-2^C303A-mCherry (catalytically inactive caspase-2 fused to mCherry) (human); test: co-IP; HEK293T lysates after transfection; capture on anti-RFP-coated Dynabeads Protein G overnight at 4 °C; lysis buffer 30 mM Tris-HCl pH 7.5, 120 mM NaCl, 1% glycerol, 0.5% NP-40; Western blot

Molecule | binding (RFXANK-myc-FLAG (human)) | binding [1] | binding [2]
Caspase-2^C303A-mCherry (catalytically inactive caspase-2 fused to mCherry) (human) (enzyme) | binds | binds | –
RFXANK-myc-FLAG (protein, UniProt O14593-1 1-260) MELTQPAEDLIQTQQTPASELGDPEDPGEEAADGSDTVVLSLFPCTPEPVNPEPDASVSSPQAGSSLKHSTTLTNRQRGNEVSALPATLDSLSIHQLAAQGELDQLKEHLRKGDNLVNKPDERGFTPLIWASAFGEIETVRFLLEWGADPHILAKERESALSLASTGGYTDIVGLLLERDVDINIYDWNGGTPLLYAVRGNHVKCVEALLARGADLTTEADSGYTPMDLAVALGYRKVQQVIENHILKLFQSNLVPADPE | – | – | binds
ANK1-4-GFP (truncated RFXANK containing ankyrin repeats 1-4) (domain or fragment, UniProt O14593 88-219) TLDSLSIHQLAAQGELDQLKEHLRKGDNLVNKPDERGFTPLIWASAFGEIETVRFLLEWGADPHILAKERESALSLASTGGYTDIVGLLLERDVDINIYDWNGGTPLLYAVRGNHVKCVEALLARGADLTTE | – | – | binds
